Reference: PubChem BioAssay (EPA / NIEHS)
Values joined by “and” are separate entries in the source; they are usually repeats but may differ in a detail not shown here. Equal entries are not always repeated. This list was built around the results that the source calls inconclusive (neither active nor inactive); the mix of calls is not that of the screen. For some of these results: Where the call is inconclusive, the potency comes from a doubtful curve fit. Active and inactive are the calls of the source. The calls were made as follows: active = hit-call score of the fitted dose curve at least 0.9, where 1 is the maximum; inconclusive = response in the unintended direction; inactive = score below 0.9.

Protein sequences, listed by entry. Tags and fused reporters are not part of them. Lines headed by an entry give the natural chain unless they say otherwise; changes in a name come on top.
UniProt P57717: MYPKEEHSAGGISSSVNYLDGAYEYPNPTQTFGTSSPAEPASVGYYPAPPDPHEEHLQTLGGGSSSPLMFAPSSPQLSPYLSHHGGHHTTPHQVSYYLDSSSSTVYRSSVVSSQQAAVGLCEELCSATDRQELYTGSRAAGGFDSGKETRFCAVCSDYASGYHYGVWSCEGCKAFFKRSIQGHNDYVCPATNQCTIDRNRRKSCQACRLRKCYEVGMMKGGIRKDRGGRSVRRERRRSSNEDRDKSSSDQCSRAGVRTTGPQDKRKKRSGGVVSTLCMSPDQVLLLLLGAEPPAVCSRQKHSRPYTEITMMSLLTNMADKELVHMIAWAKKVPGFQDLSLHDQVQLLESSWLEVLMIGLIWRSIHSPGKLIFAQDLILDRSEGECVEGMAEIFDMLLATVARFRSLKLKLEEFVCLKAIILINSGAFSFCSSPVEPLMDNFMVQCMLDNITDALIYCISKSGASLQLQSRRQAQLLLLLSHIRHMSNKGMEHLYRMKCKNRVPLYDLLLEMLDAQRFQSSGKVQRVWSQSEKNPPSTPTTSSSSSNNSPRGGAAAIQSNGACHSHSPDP
UniProt P10275: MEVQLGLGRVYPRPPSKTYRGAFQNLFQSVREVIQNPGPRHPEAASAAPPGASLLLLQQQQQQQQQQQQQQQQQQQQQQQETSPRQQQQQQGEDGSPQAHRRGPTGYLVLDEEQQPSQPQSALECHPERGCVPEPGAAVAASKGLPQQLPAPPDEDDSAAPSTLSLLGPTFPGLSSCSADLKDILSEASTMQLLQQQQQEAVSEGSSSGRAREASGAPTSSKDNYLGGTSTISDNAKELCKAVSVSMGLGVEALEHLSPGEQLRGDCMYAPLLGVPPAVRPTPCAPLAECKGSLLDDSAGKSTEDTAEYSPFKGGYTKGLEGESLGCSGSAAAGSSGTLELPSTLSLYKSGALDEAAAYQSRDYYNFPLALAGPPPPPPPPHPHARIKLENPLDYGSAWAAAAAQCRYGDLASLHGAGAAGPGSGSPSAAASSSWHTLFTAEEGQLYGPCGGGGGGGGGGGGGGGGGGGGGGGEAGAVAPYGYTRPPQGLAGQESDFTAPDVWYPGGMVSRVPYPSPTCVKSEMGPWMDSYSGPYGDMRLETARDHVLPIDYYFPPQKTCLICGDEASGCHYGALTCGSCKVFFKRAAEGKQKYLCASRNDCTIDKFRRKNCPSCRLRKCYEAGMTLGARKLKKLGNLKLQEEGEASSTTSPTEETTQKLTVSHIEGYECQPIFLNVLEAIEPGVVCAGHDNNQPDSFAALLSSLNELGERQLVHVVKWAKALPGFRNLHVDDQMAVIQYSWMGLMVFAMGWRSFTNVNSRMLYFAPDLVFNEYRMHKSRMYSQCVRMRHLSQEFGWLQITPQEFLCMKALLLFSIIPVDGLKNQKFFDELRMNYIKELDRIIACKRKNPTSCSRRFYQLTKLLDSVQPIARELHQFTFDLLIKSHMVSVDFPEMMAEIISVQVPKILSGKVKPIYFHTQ
UniProt Q92731, whole entry, looked up: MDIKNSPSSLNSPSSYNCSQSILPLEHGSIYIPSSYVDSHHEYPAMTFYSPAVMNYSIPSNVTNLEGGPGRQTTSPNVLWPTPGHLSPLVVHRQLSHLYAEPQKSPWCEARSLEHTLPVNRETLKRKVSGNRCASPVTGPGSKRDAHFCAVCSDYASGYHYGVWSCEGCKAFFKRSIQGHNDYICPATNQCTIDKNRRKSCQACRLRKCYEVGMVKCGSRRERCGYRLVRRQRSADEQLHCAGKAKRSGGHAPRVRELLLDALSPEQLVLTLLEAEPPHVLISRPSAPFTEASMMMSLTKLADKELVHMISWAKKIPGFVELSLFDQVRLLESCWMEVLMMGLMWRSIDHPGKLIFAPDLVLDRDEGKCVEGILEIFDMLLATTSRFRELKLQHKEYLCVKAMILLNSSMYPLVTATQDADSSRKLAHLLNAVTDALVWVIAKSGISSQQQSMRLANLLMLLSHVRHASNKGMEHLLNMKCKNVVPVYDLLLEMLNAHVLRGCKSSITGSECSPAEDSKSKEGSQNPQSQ
UniProt P10276, whole entry, looked up: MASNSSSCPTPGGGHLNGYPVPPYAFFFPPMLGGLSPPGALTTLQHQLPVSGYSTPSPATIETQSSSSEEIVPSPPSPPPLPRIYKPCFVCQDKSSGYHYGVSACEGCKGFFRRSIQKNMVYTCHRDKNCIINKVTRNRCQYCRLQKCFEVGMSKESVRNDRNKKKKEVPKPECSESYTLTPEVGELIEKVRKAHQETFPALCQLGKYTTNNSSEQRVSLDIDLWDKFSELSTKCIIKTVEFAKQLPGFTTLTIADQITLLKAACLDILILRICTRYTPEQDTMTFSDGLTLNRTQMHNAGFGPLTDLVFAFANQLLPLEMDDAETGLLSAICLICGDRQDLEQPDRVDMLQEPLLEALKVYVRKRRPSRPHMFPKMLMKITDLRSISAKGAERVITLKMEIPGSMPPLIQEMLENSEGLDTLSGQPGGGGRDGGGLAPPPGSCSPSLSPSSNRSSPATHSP
UniProt P42336, whole entry, looked up: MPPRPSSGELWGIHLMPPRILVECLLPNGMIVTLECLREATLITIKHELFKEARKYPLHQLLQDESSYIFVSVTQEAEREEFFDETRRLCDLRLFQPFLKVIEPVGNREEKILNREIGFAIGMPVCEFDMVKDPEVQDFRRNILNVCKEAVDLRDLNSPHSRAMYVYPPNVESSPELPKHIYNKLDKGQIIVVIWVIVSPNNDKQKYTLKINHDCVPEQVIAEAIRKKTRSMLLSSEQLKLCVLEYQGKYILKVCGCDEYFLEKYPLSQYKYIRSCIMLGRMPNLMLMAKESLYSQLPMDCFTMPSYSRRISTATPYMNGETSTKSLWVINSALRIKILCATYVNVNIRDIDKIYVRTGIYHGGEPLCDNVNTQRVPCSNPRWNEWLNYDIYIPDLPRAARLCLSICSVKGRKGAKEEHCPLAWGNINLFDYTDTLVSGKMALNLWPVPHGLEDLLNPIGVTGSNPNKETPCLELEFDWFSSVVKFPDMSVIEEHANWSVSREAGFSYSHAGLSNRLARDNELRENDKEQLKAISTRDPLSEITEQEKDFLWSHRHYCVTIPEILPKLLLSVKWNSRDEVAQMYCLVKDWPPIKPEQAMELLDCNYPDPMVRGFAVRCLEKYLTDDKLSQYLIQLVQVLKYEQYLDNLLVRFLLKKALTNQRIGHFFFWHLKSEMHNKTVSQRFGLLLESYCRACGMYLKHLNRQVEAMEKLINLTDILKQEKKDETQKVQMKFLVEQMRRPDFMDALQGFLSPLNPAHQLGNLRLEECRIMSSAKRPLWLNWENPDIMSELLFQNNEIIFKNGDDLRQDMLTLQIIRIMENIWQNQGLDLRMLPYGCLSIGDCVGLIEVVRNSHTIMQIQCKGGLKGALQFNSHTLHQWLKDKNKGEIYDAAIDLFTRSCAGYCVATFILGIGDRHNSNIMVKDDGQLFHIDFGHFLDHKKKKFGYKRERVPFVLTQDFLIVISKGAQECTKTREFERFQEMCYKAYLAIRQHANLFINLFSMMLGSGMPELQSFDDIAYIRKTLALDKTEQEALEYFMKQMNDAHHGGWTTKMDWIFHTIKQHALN
UniProt P29350: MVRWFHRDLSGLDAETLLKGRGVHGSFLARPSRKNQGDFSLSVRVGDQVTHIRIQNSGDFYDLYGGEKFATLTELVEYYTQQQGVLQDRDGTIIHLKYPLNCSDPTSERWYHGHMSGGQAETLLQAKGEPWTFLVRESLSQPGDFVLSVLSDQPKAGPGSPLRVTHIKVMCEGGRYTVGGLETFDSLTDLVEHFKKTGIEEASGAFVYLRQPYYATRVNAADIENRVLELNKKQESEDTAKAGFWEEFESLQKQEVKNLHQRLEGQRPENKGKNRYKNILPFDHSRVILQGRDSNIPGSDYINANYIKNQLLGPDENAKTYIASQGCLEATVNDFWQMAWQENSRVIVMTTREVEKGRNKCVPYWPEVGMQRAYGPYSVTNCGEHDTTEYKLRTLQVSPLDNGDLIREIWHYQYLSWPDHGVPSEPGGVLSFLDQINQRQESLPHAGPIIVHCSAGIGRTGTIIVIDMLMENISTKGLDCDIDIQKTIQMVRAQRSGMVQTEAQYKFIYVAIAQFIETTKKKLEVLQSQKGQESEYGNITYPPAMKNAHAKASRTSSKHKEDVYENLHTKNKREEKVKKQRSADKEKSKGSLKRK

Columns and labels:
[1] = NVS_IC_rCaBTZCHL: NovaScreen (NVS) Ion Channel Assay for Calcium Channel, Type L, Benzothiazepine Site (CaBTZCHL) (AID 2283337)
Procedure, shortened: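 Scintillation counting of filter-bound radioligand gave the read-out, with reduced binding versus DMSO scored as activity. Membranes came from rat cortex and were read 1.5 h after compound addition. Chemicals were screened first in duplicate at 25 uM.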

[2] = Tanguay_ZF_120hpf_YSE_legacy: (Legacy) Oregon State University Tanguay Lab 120 Hour Post-fertilization zebrafish Assay for Yolk Sac Edema (AID 2283634);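 as to AC50: actives raise the incidence of yolk sac edema above the DMSO baseline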
Procedure, shortened: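 Binary brightfield scoring of yolk sac edema at 120 hpf; DMSO baseline, gain-of-signal fitting. Dechorionated 5D larvae, one per well, static exposure 6–120 hpf, 28C, 0.64% DMSO. Dead embryos not scored.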

[3] = Tanguay_ZF_120hpf_EYE_legacy: (Legacy) Oregon State University Tanguay Lab 120 Hour Post-fertilization zebrafish Assay for Eye Malformation (AID 2283636)
Procedure, shortened: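 Dechorionated wild-type Tropical 5D zebrafish embryos were exposed statically from 6 hpf, one per well, to 120 hpf at 28C in sealed, foil-covered plates with 0.64% DMSO. Eye malformation was scored present/absent by brightfield microscopy against DMSO controls.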

[4] = Tanguay_ZF_120hpf_SNOU_legacy: (Legacy) Oregon State University Tanguay Lab 120 Hour Post-fertilization zebrafish Assay for Snout Malformation (AID 2283637)
Procedure, shortened: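 Tropical 5D wild-type zebrafish embryos, dechorionated with pronase at 4 hpf, were exposed singly from 6 hpf to 120 hpf statically at 28C in 0.64% DMSO. Snout malformation was scored present/absent by brightfield microscopy, fitted against DMSO.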

[5] = Tanguay_ZF_120hpf_SOMI_legacy: (Legacy) Oregon State University Tanguay Lab 120 Hour Post-fertilization zebrafish Assay for Somite Malformation (AID 2283647)
Procedure, shortened: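 Binary brightfield scoring of somite defects at 120 hpf in 5D wild-type larvae; one dechorionated embryo per well, static exposure from 6 hpf, 28C, sealed and dark. Final DMSO 0.64%; trimethyltin chloride 5uM positive control.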

[6] = Tanguay_ZF_120hpf_TRUN_legacy: (Legacy) Oregon State University Tanguay Lab 120 Hour Post-fertilization zebrafish Assay for Truncated Body (AID 2283655)
Procedure, shortened: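 Whole-embryo zebrafish screen: dechorionated 5D embryos, static exposure 6–120 hpf, 28C, sealed foil-covered plates, 0.64% DMSO. Binary truncation call; gain of signal versus DMSO baseline.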

[7] = target: zebrafish Estrogen Receptor (ER1), esr1 (gene 259252) (UniProt P57717); test: ATG_zfER1_XSP2: Attagene TRANS-FACTORIAL Multi-Species (XSP2) HepG2 Assay for zebrafish Estrogen Receptor (ER1) (AID 2283816)
Procedure, shortened: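 HepG2 cells transiently transfected with a GAL4-UAS reporter and a chimeric zebrafish ER1-Gal4 construct, dosed 24 h. Reporter mRNA quantified by RT-PCR, labelling, HpaI digestion and capillary electrophoresis, relative to DMSO.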

[8] = system: zebrafish Androgen Receptor (AR), gene 100005148; test: ATG_zfAR_XSP2: Attagene TRANS-FACTORIAL Multi-Species (XSP2) HepG2 Assay for zebrafish Androgen Receptor (AR) (AID 2283825);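 also: reporter transcript measured by RT-PCR then capillary electrophoresis after 24 h; hits raise reporter mRNA above DMSO so AC50 reflects agonist-type gain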
Procedure, shortened: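 Zebrafish AR–GAL4 chimera transiently expressed with GAL4-UAS reporter in HepG2 cells, co-stimulated with 3 nM 6-alpha-fluorotestosterone and 1.5 nM norgestrel; 24 h dosing, reporter mRNA read by RT-PCR/capillary electrophoresis versus DMSO.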

[9] = Tanguay_ZF_120hpf_AXIS_legacy: (Legacy) Oregon State University Tanguay Lab 120 Hour Post-fertilization zebrafish Assay for Body Axis Malformation (AID 2283635);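 also: potency for an increased fraction of larvae scored with body axis malformation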
Procedure, shortened: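 Embryos: 5D wild-type, pronase-dechorionated 4 hpf; static exposure 6–120 hpf, 28C, sealed, dark, 1 embryo/well, 0.64% DMSO. 120 hpf axis malformation scored present/absent; dead embryos excluded. Analysed as gain of signal vs DMSO.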

[10] = Tanguay_ZF_120hpf_SWIM_legacy: (Legacy) Oregon State University Tanguay Lab 120 Hour Post-fertilization zebrafish Assay for Swim Bladder Malformation (AID 2283654);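 also: swim bladder malformation in each larva scored yes or no under brightfield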
Procedure, shortened: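 Dechorionated Tropical 5D wild-type embryos, placed singly from 6 hpf, were statically exposed at 28C to 120 hpf with 0.64% DMSO final; swim bladder malformation was scored present/absent by brightfield microscopy, gain of signal relative to DMSO controls.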

[11] = target: Nucleoli Translocation, AR (gene 367) (UniProt P10275); test: UPITT_HCI_U2OS_AR_TIF2_Nucleoli_Agonist: University of Pittsburgh U2OS Androgen Receptor-Transcriptional Intermediary Factor 2 (AR-TIF2) Agonism High Content Imaging Assay for Nucleoli Translocation (AID 2283998)
Procedure, shortened: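 RFP-AR / GFP-TIF2 cells; cpds diluted in serum-free medium; single-point screen 20 uM final (0.2% DMSO), actives confirmed in triplicate; conc-response 0.195–50 uM final (0.5% DMSO). Readout: nucleolar red fluorescence, positive direction vs DMSO.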

[12] = target: Ratio of Nucleoli Translocation and Cytoplasm, AR (gene 367) (UniProt P10275); test: UPITT_HCI_U2OS_AR_TIF2_Nucleoli_Cytoplasm_Ratio_Antagonist: University of Pittsburgh U2OS Androgen Receptor-Transcriptional Intermediary Factor 2 (AR-TIF2) Antagonism High Content Imaging Assay for Ratio of Nucleoli Translocation and Cytoplasm (AID 2283999);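 also: antagonists lower the DHT-driven ratio of nucleolar to cytoplasmic red signal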
Procedure, shortened: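 Human osteosarcoma U2OS line, AR fused to RFP, coactivator TIF2 fused to GFP. Cpds 20 uM final, 0.2% DMSO (screen); 0.195–50 uM final, 0.5% DMSO (CRC). Endpoint: nucleoli/cytoplasm red signal ratio, DHT as baseline, loss-of-signal antagonist mode.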

[13] = Tanguay_ZF_120hpf_TR_legacy: (Legacy) Oregon State University Tanguay Lab 120 Hour Post-fertilization zebrafish Assay for Touch Response (AID 2283667)
Procedure, shortened: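 Tropical 5D wild-type zebrafish embryos were exposed statically in sealed, foil-covered plates at 28C until 120 hpf, with 0.64% (vol/vol) final DMSO. Touch response was scored as present or absent; embryos that died were not scored.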

[14] = target: Nucleoli Translocation, AR (gene 367) (UniProt P10275); test: UPITT_HCI_U2OS_AR_TIF2_Nucleoli_Antagonist: University of Pittsburgh U2OS Androgen Receptor-Transcriptional Intermediary Factor 2 (AR-TIF2) Antagonism High Content Imaging Assay for Nucleoli Translocation (AID 2283997)
Procedure, shortened: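 U2OS cells expressing RFP-tagged human AR and GFP-tagged TIF2 were imaged by high-content fluorescence microscopy for red AR signal in the nucleolar region. Compounds were screened at 20 uM final (0.2% DMSO), with activity fitted relative to DHT as baseline.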

[15] = target: Estrogen receptor beta (Homo sapiens) (UniProt Q92731); test: OT_ER_ERbERb_0480: Odyssey Thera (OT) 8-hour HEK293T Protein-Complementation Assay for Estrogen Receptor-beta/-beta Homodimer (AID 2283357);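 also: active means signal gain over DMSO baseline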
Procedure, shortened: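 Readout: increase in mean fluorescence intensity (nucleus for agonists; nucleus plus cytoplasm for antagonists) relative to DMSO, from a reporter-fragment complementation of human ER-beta LBD homodimer in HEK293T cells dosed 8 hours.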

[16] = Tanguay_ZF_120hpf_CIRC_legacy: (Legacy) Oregon State University Tanguay Lab 120 Hour Post-fertilization zebrafish Assay for Circulatory Malformation (AID 2283651)
Procedure, shortened: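 Read-out: presence or absence of circulatory malformation at 120 hpf, scored by brightfield microscopy, fitted in the gain-of-signal direction against DMSO baseline. Wild-type 5D larvae were exposed from 6 hpf after enzymatic chorion removal.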

[17] = STM_H9_OrnCyssISnorm_ratio: Stemina devTOX quickPredict H9 human embryonic stem cell (hESC)-based Assay for Ornithine (ORN):Cystine (CYSS) Ratio (AID 2283714)
Procedure, shortened: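 Undifferentiated H9 hESCs were exposed to compound for 72h with media and chemical replaced every 24h. Final 24-h conditioned media were deproteinized and analysed by UPLC-HRMS. ORN and CYSS peak areas were normalized to C13 internal standards and the ratio taken versus 0.1% DMSO.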

[18] = target: Retinoic acid receptor alpha (Homo sapiens) (UniProt P10276); test: NVS_NR_hRAR_Antagonist: NovaScreen (NVS) Nuclear Receptor Binding Assay for human Retinoic Acid Alpha Receptor Antagonism (RAR) (AID 2283358)
Procedure, shortened: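 Cell-free TR-FRET binding assay on extracted receptor protein, run in antagonist mode; signal read 2 hours after chemical dosing. Loss of signal was fitted relative to DMSO baseline. Screened at 25 uM in duplicate, actives followed up in concentration series.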

[19] = target: human Phosphoinositide 3-kinase alpha (PI3Ka), PIK3CA (gene 5290) (UniProt P42336); test: NVS_ENZ_hPI3Ka: NovaScreen (NVS) Enzymatic Assay for human Phosphoinositide 3-kinase alpha (PI3Ka) (AID 2283196)
Procedure, shortened: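 Enzyme activity as fluorescence after mobility-shift separation of substrate and product, 1 h reaction, recombinant human PI3Kα; concentration-response to 50 uM max for chemicals passing a 25 uM duplicate screen.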

[20] = target: human Protein Tyrosine Phosphatase Non-receptor Type 6 (PTPN6), PTPN6 (gene 5777) (UniProt P29350); test: NVS_ENZ_hPTPN6: NovaScreen (NVS) Enzymatic Assay for human Protein Tyrosine Phosphatase Non-receptor Type 6 (PTPN6) (AID 2283210)
Procedure, shortened: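 Cell-free assay with recombinant PTPN6 expressed in SF9 cells, fluorescent substrate, product separated from substrate by electrophoretic mobility shift; read 1.33 hours after dosing. Primary screen in duplicate at 25 uM, actives retested in concentration series; DMSO baseline.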

## CCCCCCCCN(C)C
[1]
  outcome: inactive
[2]
  AC50: inconclusive: 137 µM
[3]
  AC50: inconclusive: 30 µM

## c1ccc2c(c1)ccc1ccccc12
[4]
  outcome: inactive
[5]
  AC50: inconclusive: 202 µM
[6]
  outcome: inactive
[7]
  AC50: inconclusive: 33.4 µM and inconclusive: 189 nM
[8]
  AC50: inconclusive: 33.4 µM and inconclusive: 100 µM

## CC(C)c1cccc(C(C)C)c1NC(=O)NS(=O)(=O)c1cc(C(C)(C)O)co1
[9]
  AC50: inconclusive: 3.09 µM
[5]
  AC50: inconclusive: 8.34 µM
[10]
  AC50: inconclusive: 202 µM

## CN(CCOc1ccc(CC2SC(=O)NC2=O)cc1)c1ccccn1 (stereo unspecified)
[7]
  AC50: inconclusive: 190 nM
[8]
  AC50: inconclusive: 26.4 nM

## FC(F)(F)c1ccc(Cl)c(Cl)c1
[11]
  AC50: inconclusive: 0.159 µM
[12]
  outcome: inactive

## COc1c(Cl)ccc(Cl)c1C(=O)O
[10]
  AC50: inconclusive: 36.9 µM

## COCc1nnc(-c2ccc[n+]([O-])c2)n1-c1c(Cl)c(Cl)cc2[nH]c(=O)c(=O)[nH]c12
[9]
  AC50: inconclusive: 57.9 µM
[5]
  outcome: inactive
[10]
  AC50: inconclusive: 83.3 µM
[6]
  outcome: inactive
[13]
  outcome: inactive
[14]
  AC50: inconclusive: 50 µM
[11]
  AC50: inconclusive: 50 µM
[12]
  AC50: inconclusive: 50 µM

## OCCC(F)(F)C(F)(F)C(F)(F)C(F)(F)C(F)(F)C(F)(F)F
[9]
  AC50: inconclusive: 200 µM
[3]
  AC50: inconclusive: 2.22 µM
[4]
  AC50: inconclusive: 202 µM

## CCCCCCCCCCCCCC(=O)OC(C)C
[15]
  AC50: inconclusive: 50 µM
[14]
  AC50: inconclusive: 2.25 µM

## CCO[Si](OCC)(OCC)c1ccccc1
[1]
  AC50: inconclusive: 25 µM

## O=C(c1ccccc1)c1ccccc1
[16]
  outcome: inactive
[17]
  outcome: inactive
[11]
  outcome: inactive

## O=C(CCCCCCCCc1cccnc1)N1CCC(C=C(c2ccccc2)c2ccccc2)CC1
[18]
  outcome: inactive
[11]
  AC50: inconclusive: 45.8 µM

## CC1=CCC(C(C)(C)O)CC1 (stereo unspecified)
[14]
  AC50: inconclusive: 50 µM
[11]
  AC50: inconclusive: 50 µM
[12]
  AC50: inconclusive: 50 µM

## CC(C)c1cccc(C(C)C)c1N1C(=O)c2ccc(O)cc2C1=O
[19]
  AC50: active: 0.533 µM
[20]
  AC50: inconclusive: 6.61 µM
[3]
  AC50: inconclusive: 1.61 µM
[5]
  AC50: inconclusive: 3.5 µM
[6]
  AC50: inconclusive: 1.44 µM

## CCOc1ccc(N=Nc2ccc(C=Cc3ccc(N=Nc4ccc(OCC)cc4)cc3S(=O)(=O)O)c(S(=O)(=O)O)c2)cc1
[18]
  AC50: active: 12.9 µM

## Cc1ccc(C)c(O)c1C
[2]
  outcome: inactive

## CC(COCC(C)OC(=O)c1ccccc1)OC(=O)c1ccccc1 (stereo unspecified)
[17]
  AC50: inconclusive: 0.0309 µM
